Many values rest on one well or one pass, so single values are uncertain.
Compound: [O-][N+](C(C1=C(C(O)=C2)NC(C(C=C3)=CC=C3Cl)C4C1C=CC4)=C2Cl)=O
Assay: melting temperature shift (compound 7 minus DMSO); higher = compound stabilises the protein
Conditions: 10 µM
Experimental: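 Thermal proteome profiling (TMT mass spectrometry) in intact DAOY medulloblastoma cells or DAOY lysates treated with 10 µM compound 7 or DMSO, heated at 10 temperatures from 40.5 to 73.8 °C for 3 min. Melting curves were fitted with the Bioconductor TPP package, and the melting point difference between compound and vehicle is reported per protein (single curve per condition).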

Amino acid sequences for entries named in this document (tags omitted). A change or cut given only in a name is not applied to a line headed by its entry.
UniProt P84077: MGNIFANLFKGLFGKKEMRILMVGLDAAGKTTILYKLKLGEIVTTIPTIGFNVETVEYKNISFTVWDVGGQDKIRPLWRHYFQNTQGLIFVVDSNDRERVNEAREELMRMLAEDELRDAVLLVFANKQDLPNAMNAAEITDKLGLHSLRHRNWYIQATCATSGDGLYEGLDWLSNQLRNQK
UniProt P38919, whole entry: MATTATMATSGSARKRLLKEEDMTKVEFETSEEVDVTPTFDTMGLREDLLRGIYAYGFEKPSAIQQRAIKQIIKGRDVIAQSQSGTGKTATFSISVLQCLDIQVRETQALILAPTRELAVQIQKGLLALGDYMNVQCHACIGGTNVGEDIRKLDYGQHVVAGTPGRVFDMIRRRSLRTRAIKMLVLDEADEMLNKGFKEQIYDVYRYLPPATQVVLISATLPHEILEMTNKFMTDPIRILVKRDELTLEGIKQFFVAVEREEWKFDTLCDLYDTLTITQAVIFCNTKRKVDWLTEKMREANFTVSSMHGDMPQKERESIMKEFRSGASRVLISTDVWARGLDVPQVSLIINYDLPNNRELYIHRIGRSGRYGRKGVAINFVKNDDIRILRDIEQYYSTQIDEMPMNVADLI
UniProt Q9NQC7: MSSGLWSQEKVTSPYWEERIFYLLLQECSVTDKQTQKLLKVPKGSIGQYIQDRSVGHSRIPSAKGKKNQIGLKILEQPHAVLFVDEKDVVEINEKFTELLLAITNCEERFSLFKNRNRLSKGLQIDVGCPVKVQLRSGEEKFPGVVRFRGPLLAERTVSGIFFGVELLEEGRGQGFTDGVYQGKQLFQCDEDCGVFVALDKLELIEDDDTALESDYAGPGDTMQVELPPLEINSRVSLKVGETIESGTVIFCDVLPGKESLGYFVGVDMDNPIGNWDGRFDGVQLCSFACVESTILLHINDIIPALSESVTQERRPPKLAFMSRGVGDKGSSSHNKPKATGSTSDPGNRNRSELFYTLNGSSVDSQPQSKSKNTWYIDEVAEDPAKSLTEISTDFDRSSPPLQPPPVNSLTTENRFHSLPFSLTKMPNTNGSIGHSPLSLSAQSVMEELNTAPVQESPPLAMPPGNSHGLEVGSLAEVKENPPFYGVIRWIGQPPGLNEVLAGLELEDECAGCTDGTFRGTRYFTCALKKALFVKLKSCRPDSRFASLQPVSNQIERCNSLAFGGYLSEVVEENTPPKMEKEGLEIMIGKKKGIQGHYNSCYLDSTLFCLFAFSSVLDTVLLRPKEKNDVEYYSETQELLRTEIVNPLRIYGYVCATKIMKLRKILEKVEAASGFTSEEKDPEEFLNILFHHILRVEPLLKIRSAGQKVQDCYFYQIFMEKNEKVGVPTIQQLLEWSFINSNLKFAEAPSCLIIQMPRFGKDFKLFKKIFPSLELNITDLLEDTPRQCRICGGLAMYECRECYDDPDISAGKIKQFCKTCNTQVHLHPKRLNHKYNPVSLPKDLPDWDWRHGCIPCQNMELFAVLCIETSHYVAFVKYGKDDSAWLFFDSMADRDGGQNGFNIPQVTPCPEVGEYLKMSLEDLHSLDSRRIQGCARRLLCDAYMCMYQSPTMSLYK
UniProt O95433, whole entry: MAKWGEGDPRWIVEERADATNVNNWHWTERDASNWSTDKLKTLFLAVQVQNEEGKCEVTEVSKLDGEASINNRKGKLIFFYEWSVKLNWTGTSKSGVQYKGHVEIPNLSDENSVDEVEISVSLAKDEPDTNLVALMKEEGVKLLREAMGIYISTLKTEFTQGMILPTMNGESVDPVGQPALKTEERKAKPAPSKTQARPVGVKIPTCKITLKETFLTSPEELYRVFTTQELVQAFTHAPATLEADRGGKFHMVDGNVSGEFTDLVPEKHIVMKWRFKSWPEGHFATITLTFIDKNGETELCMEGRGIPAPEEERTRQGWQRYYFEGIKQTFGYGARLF
UniProt P22059, whole entry: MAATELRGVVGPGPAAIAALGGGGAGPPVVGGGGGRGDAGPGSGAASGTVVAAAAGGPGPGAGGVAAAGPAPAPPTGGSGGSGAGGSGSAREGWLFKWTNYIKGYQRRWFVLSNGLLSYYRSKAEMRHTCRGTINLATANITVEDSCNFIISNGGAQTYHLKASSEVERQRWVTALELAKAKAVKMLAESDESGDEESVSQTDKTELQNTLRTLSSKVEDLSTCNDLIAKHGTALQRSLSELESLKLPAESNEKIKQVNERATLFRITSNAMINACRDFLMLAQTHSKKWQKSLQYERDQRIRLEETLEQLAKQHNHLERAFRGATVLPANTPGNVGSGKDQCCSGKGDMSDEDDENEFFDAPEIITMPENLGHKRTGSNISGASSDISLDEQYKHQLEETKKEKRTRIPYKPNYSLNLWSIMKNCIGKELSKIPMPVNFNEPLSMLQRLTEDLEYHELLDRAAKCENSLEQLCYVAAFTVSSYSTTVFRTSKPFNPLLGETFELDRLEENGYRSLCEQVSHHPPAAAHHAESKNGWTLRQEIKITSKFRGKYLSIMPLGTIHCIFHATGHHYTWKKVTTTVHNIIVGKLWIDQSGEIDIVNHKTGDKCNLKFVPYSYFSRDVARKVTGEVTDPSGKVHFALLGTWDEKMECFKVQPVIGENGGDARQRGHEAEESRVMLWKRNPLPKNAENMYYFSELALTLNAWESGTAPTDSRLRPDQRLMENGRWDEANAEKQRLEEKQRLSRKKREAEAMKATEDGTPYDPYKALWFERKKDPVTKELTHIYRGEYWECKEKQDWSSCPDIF
UniProt Q9Y547: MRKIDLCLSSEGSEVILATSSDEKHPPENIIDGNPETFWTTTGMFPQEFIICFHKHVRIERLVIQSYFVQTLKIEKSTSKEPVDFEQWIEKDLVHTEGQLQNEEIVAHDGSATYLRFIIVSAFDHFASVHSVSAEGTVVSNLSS
UniProt P84103: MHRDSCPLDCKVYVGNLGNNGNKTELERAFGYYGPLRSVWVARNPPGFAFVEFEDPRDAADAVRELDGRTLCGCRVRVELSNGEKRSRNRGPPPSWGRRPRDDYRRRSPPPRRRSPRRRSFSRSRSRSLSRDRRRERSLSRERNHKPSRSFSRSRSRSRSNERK
UniProt Q9HD15: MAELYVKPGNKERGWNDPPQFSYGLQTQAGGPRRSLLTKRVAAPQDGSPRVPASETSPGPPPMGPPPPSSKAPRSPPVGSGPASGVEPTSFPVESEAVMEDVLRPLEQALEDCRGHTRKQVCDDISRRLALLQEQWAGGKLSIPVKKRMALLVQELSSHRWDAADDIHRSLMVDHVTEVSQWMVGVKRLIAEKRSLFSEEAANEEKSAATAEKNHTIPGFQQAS
UniProt Q15102: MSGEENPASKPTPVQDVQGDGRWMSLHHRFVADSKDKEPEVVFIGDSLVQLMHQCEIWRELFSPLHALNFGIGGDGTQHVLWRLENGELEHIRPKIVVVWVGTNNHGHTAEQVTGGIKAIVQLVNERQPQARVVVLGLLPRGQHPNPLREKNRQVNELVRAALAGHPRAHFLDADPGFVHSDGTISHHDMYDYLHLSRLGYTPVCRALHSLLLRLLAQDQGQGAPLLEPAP
UniProt Q07617: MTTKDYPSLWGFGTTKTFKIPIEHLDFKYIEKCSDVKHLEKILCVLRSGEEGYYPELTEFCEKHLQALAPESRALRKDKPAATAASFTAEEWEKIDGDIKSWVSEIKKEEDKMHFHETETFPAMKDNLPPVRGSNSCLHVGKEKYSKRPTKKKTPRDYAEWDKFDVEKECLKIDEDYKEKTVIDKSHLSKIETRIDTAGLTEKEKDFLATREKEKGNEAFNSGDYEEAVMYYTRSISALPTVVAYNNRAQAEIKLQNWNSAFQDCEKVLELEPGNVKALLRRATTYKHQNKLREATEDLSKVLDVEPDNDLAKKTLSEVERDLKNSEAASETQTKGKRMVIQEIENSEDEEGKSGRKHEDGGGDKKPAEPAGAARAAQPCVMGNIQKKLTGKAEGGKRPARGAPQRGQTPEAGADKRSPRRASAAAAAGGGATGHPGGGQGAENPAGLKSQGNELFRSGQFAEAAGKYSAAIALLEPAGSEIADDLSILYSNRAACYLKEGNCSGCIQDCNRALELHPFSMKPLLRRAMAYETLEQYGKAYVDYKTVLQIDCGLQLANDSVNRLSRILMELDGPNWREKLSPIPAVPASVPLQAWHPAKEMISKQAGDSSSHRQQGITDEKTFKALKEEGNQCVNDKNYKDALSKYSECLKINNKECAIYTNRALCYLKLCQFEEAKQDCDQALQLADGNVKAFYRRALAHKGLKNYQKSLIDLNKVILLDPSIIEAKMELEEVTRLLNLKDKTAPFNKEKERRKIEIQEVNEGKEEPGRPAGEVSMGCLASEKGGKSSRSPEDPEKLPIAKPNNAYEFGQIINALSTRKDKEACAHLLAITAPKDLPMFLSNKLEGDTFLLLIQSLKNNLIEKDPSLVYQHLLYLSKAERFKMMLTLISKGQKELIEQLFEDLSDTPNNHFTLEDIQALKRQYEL
UniProt P08253: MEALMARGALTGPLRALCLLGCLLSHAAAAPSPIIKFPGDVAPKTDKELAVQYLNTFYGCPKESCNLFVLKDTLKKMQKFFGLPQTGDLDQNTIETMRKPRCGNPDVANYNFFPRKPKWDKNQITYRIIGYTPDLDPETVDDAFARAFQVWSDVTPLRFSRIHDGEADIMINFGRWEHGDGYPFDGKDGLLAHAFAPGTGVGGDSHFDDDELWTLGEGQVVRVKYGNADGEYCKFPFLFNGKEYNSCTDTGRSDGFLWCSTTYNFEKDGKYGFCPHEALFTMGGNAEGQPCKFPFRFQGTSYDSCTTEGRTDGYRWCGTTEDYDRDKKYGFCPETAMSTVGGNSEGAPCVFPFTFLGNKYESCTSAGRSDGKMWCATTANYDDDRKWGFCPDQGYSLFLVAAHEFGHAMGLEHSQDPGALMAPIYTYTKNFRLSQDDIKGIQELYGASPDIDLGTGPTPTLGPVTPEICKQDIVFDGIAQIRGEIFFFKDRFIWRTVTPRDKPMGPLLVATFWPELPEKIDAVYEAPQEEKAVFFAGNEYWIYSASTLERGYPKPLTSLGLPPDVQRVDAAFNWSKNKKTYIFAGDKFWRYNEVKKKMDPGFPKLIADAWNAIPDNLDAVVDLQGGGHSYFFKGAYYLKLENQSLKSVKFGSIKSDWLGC
UniProt Q8WYP3: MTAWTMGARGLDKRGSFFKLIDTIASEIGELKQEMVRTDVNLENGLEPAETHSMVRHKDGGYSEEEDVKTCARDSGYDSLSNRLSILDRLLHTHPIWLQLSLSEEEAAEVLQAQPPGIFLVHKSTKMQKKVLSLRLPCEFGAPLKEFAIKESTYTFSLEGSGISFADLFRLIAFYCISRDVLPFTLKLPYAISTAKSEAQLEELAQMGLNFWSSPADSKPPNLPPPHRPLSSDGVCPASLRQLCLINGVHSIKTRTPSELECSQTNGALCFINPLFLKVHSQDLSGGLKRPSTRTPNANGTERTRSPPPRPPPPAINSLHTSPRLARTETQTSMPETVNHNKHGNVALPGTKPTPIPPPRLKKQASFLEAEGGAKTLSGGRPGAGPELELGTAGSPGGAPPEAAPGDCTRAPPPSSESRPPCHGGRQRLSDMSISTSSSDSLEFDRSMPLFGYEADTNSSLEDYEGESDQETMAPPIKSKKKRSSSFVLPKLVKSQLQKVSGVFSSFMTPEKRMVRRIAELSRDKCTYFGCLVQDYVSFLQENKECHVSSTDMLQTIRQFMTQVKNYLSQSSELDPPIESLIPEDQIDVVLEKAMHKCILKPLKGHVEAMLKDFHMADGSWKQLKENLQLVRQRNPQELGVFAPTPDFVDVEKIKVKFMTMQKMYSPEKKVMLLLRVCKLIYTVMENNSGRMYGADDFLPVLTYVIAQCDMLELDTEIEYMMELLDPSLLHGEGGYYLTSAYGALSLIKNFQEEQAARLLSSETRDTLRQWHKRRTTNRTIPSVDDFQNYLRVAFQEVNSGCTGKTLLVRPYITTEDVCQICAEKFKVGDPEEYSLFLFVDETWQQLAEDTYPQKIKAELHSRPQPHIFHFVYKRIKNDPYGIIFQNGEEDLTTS
UniProt Q9Y2V7: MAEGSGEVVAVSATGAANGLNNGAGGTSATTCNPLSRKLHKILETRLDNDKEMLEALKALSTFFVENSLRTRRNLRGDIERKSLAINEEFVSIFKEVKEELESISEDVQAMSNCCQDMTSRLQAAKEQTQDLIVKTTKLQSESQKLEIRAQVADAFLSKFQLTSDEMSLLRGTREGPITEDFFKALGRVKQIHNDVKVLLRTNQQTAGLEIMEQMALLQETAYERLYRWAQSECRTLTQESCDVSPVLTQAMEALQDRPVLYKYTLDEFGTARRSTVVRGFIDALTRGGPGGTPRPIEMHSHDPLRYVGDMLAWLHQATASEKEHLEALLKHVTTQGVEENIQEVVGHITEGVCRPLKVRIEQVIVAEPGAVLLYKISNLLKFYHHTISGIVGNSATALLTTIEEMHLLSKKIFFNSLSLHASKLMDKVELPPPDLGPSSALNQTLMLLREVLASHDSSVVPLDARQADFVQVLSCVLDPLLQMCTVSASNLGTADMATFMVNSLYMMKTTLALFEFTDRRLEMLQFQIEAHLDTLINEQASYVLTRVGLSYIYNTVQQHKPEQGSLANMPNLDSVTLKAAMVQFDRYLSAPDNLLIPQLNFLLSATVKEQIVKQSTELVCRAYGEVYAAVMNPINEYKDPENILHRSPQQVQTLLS

[1] = system: DAOY cell lysate, treatment time: 20 min, 4 °C
[2] = system: intact DAOY cells, treatment time: 90 min, 37 °C

Target | melting temperature shift [1] [°C] | melting temperature shift [2] [°C]
UniProt Q6KCM7 | 1.9 | –
TRAPPC4 (UniProt Q9Y296) | -0.712 | 1.36
HUS1 (UniProt O60921) | -0.561 | 2.46
UniProt Q9UMX2 | – | -1.33
UniProt P07864 | – | -2.13
BIN3 (UniProt Q9NQY0) | -1.13 | 0.058
MRPS11 (UniProt P82912) | 0.728 | 0.754
UniProt O14529 | – | -0.786
RBM15 (UniProt Q96T37) | -0.533 | 0.697
HNRNPA1 (UniProt P09651) | 0.908 | 0.00459
UniProt P84077 | -0.884 | -1.13
STARD7 (UniProt Q9NQZ5) | 0.313 | 0.806
EIF4A3 (UniProt P38919) | -0.465 | 2.15
BRAP (UniProt Q7Z569) | -0.944 | 1.82
CYLD (UniProt Q9NQC7) | -0.594 | –
MTIF3 (UniProt Q9H2K0) | 1.74 | –
UniProt Q8N196 | – | 0.26
ASF1A (UniProt Q9Y294) | -0.805 | 1.15
ARCN1 (UniProt P48444) | -0.312 | 0.171
LTN1 (UniProt O94822) | 0.138 | -0.276
GSTK1 (UniProt Q9Y2Q3) | 1.17 | -0.144
RPL28 (UniProt P46779) | 0.736 | -0.621
AHSA1 (UniProt O95433) | -0.591 | 0.0615

Target | melting temperature shift [1] [°C] | melting temperature shift [2] [°C]
PPM1A (UniProt P35813) | -0.629 | 0.369
CAMK4 (UniProt Q16566) | -2.89 | -1.91
RNF181 (UniProt Q9P0P0) | -4.8 | –
CTH (UniProt P32929) | -1.15 | 3.34
CPNE1 (UniProt Q99829) | -0.36 | 0.445
SRP14 (UniProt P37108) | -0.0225 | -0.407
SLC27A4 (UniProt Q6P1M0) | 0.73 | -0.0102
LRBA (UniProt P50851) | -1.03 | -0.526
VPS29 (UniProt Q9UBQ0) | -0.831 | -0.654
UniProt Q8N5W9 | -0.317 | –
STK33 (UniProt Q9BYT3) | -1 | –
UniProt O15020 | -0.618 | 1.26
OSBP (UniProt P22059) | -1.4 | -0.591
PAPOLG (UniProt Q9BWT3) | 1.85 | -3.11
DDX39A (UniProt O00148) | 0.199 | -0.4
DPH2 (UniProt Q9BQC3) | -0.88 | 1.13
M6PR (UniProt P20645) | 3.01 | –
BCAT2 (UniProt O15382) | 0.712 | 1.18
UniProt P42356 | -1.66 | 1.2
UniProt P54274 | -1.89 | –
AAMP (UniProt Q13685) | -0.701 | 1.39
HSPB11 (UniProt Q9Y547) | -1.14 | 1.49
VWA8 (UniProt A3KMH1) | -0.77 | 0.286

Some of the entries so far, in CSV form.
Target,melting temperature shift [1] [°C],melting temperature shift [2] [°C]
STK33 (UniProt Q9BYT3),-1,–
UniProt O15020,-0.618,1.26

More results

Target | melting temperature shift [1] [°C] | melting temperature shift [2] [°C]
AKAP13 (UniProt Q12802) | -0.912 | -0.701
UniProt P51161 | 0.537 | -1.71
SRSF3 (UniProt P84103) | 0.532 | -0.0529
MPG (UniProt P29372) | -1.54 | –
ERAP1 (UniProt Q9NZ08) | -0.078 | 0.551
SCRN3 (UniProt Q0VDG4) | 1.45 | 1.51
UniProt Q969J3 | -0.35 | –
SRA1 (UniProt Q9HD15) | 2.05 | -0.625
PREX1 (UniProt Q8TCU6) | – | -0.531
UniProt P10114 | – | -3.18
COG7 (UniProt P83436) | -0.271 | -0.885
CYB5B (UniProt O43169) | 1.61 | –
TSR3 (UniProt Q9UJK0) | -0.293 | –
PAFAH1B3 (UniProt Q15102) | -0.534 | 0.0765
UTP6 (UniProt Q9NYH9) | 0.815 | –
TXNDC5 (UniProt Q8NBS9) | 0.953 | 1.01
FARSB (UniProt Q9NSD9) | 0.114 | -0.691
SIN3B (UniProt O75182) | -0.0589 | –
GNAI2 (UniProt P04899) | 0.875 | -0.252
EIF1AX (UniProt P47813) | -0.827 | -0.304
GPR107 (UniProt Q5VW38) | 1.3 | 0.826
ZFYVE16 (UniProt Q7Z3T8) | -0.0443 | 2.35
UniProt O75525 | – | 0.333

Target | melting temperature shift [1] [°C] | melting temperature shift [2] [°C]
APEX1 (UniProt P27695) | 0.321 | 0.363
WDSUB1 (UniProt Q8N9V3) | -0.321 | –
RNF220 (UniProt Q5VTB9) | -1 | 5.59
UniProt A6NDB9 | 9.04 | –
SRRM1 (UniProt Q8IYB3) | 0.287 | 0.393
WASF2 (UniProt Q9Y6W5) | 0.183 | -0.593
VPS11 (UniProt Q9H270) | 0.521 | -0.26
PPT1 (UniProt P50897) | -0.253 | -4.25
STUB1 (UniProt Q9UNE7) | -0.52 | -0.328
UniProt Q8ND76 | 3.35 | –
CMC2 (UniProt Q9NRP2) | 1.99 | –
KIAA2013 (UniProt Q8IYS2) | 0.0301 | 0.775
STK11IP (UniProt Q8N1F8) | -2.12 | –
FYN (UniProt P06241) | – | 2.15
RPL10A (UniProt P62906) | 0.364 | -0.505
SPAG1 (UniProt Q07617) | 0.431 | -0.637
UniProt P08253 | 1.96 | 1.33
EMD (UniProt P50402) | 1.04 | 0.96
UniProt Q8WYP3 | -0.857 | 1.78
COG6 (UniProt Q9Y2V7) | -0.402 | -0.473
PIEZO1 (UniProt Q92508) | -0.0731 | –

Four successive entries out of the list so far:
Target | melting temperature shift [1] [°C] | melting temperature shift [2] [°C]
FYN (UniProt P06241) | – | 2.15
RPL10A (UniProt P62906) | 0.364 | -0.505
SPAG1 (UniProt Q07617) | 0.431 | -0.637
UniProt P08253 | 1.96 | 1.33

Reference: the supplement of paper PMC10060354, “Discovery of a small molecule ligand of FRS2 that inhibits invasion and tumor growth” (Cellular Oncology, 2022)
